The record followed here is publication PMC5311971.

Sequences of proteins named here, by UniProt entry; tags and fusion partners are left off. A change or cut given only in a name is not applied to a line headed by its entry.
UniProt P0AA16: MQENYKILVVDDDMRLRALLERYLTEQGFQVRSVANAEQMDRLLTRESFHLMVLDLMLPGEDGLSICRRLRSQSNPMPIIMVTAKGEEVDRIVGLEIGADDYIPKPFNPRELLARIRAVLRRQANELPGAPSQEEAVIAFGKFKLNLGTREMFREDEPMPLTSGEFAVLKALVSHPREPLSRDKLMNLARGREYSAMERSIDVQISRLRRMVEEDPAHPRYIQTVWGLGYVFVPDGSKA

The exact form of at least one protein or probe is not confirmed. Negatives hold for the conditions tested.

The data set addresses OmpR (phosphorylated, purified from LB culture) (UniProt P0AA16). The data set can be described thus: EMSA. The note with it: 10 mM Tris pH 7.5, 100 mM KCl, 10 mM MgCl2, 1 mM DTT, 5% glycerol, 20 uL, ~80 ng DNA, 30 min at room temperature, 5% native TBE gel, ethidium bromide, recombinant protein. For orientation: In EMSA bound probe runs differently from free probe, usually more slowly.

[1] abbreviates: probe letters rebuilt from the primers and the genome.

“AATTTTTTCACATATTTACATTTAATCACACAATTTCACTTTCATTACAT (double strand) [Pmic fragment 10 (-61/-110)]”: the binding result (300 ng OmpR) is “binds”.

As to “ACCTTTCCGTCAACAAGAGGTTTTGGTTGAATAATATTAATATTTGATATGCATCTTACCTGTGTGATGTTAAAGTTTTATACTATAATATATTTAACAATATAACAAAGCCGTTTATTCCCGCATGTAACAGCATTGGATAG (double strand) [PmicD-20/-163]”, the binding result under setting [1] is “no binding”. As for “TCACACAATTTCACTTTCATTACATTTTTGTTATTGGCTATCTTGAACGCA (double strand) [Pmic fragment 9 (-35/-84)]”, the binding result (300 ng OmpR) is “no binding”. On to “CCGGAATTCATGGAAAACCTGAATATGGATCTGCTGTACATGGCTGCCGCTGTGATGATGGGTCTGGCGGCAATCGGTGCTGCGATCGGTATCGGCATCCTCGGGGGTAAATTCCTGGAAGGCGCAGCGCGTCAACCTGATCTGATTCCTCTGCTGCGTACTCAGTTCTTTATCGTTATGGGTCTGGTGGATGCTATCCCGATGATCGCTGTAGGTCTGGGTCTGTACGTGATGTTCGCTGTCGCGCATCATCACCATCACCATTAGGTCGACGCG (double strand) [atpE fragment]”, for which the binding result under setting [1] is given as “no binding”.
